The supplement of paper PMC11732987, “Enantioselective OTUD7B fragment discovery through chemoproteomics screening and high-throughput optimisation” (Communications Chemistry, 2025)
This is one part of the list. The data scatter; read single values as rough.

By UniProt entry, the sequences of proteins in these tests, tags left out. Where a name states a change or a piece, a line headed by the entry shows the natural chain unless it says otherwise. Residues count along the entry.
UniProt Q7RTV0, whole entry, looked up: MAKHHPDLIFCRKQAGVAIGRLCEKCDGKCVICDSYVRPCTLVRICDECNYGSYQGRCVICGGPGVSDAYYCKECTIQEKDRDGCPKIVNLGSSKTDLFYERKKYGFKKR
UniProt Q58EX7: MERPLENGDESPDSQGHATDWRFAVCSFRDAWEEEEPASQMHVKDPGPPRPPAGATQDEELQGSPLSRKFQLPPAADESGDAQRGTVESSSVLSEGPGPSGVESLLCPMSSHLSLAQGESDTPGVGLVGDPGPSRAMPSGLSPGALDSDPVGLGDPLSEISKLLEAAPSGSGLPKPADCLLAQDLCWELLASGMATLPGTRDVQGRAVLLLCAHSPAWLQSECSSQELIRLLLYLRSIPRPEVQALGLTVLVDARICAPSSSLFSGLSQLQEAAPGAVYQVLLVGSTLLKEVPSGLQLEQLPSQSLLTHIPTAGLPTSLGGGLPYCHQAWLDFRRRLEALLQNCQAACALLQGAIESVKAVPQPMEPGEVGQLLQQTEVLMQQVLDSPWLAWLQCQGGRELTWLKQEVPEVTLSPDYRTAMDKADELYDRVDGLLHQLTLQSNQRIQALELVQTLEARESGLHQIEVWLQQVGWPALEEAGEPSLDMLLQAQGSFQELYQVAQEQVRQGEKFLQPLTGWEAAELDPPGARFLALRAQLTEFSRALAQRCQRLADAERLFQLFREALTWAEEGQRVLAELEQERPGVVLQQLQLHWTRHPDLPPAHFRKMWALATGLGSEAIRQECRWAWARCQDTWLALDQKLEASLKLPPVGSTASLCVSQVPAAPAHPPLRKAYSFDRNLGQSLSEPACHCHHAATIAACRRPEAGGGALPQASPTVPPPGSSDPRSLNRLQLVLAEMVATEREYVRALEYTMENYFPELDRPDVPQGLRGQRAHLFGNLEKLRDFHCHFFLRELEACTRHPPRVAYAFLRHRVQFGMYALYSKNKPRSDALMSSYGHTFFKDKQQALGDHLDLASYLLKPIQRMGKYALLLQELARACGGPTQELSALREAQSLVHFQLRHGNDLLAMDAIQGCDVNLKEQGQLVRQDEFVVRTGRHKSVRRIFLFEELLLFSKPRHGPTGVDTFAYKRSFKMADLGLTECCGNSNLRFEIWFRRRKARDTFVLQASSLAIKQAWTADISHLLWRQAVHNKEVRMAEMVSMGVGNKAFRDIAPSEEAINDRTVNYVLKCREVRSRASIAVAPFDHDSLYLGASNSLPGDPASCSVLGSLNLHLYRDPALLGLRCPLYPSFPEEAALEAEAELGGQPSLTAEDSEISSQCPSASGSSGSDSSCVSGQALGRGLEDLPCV
UniProt O95602, whole entry, looked up: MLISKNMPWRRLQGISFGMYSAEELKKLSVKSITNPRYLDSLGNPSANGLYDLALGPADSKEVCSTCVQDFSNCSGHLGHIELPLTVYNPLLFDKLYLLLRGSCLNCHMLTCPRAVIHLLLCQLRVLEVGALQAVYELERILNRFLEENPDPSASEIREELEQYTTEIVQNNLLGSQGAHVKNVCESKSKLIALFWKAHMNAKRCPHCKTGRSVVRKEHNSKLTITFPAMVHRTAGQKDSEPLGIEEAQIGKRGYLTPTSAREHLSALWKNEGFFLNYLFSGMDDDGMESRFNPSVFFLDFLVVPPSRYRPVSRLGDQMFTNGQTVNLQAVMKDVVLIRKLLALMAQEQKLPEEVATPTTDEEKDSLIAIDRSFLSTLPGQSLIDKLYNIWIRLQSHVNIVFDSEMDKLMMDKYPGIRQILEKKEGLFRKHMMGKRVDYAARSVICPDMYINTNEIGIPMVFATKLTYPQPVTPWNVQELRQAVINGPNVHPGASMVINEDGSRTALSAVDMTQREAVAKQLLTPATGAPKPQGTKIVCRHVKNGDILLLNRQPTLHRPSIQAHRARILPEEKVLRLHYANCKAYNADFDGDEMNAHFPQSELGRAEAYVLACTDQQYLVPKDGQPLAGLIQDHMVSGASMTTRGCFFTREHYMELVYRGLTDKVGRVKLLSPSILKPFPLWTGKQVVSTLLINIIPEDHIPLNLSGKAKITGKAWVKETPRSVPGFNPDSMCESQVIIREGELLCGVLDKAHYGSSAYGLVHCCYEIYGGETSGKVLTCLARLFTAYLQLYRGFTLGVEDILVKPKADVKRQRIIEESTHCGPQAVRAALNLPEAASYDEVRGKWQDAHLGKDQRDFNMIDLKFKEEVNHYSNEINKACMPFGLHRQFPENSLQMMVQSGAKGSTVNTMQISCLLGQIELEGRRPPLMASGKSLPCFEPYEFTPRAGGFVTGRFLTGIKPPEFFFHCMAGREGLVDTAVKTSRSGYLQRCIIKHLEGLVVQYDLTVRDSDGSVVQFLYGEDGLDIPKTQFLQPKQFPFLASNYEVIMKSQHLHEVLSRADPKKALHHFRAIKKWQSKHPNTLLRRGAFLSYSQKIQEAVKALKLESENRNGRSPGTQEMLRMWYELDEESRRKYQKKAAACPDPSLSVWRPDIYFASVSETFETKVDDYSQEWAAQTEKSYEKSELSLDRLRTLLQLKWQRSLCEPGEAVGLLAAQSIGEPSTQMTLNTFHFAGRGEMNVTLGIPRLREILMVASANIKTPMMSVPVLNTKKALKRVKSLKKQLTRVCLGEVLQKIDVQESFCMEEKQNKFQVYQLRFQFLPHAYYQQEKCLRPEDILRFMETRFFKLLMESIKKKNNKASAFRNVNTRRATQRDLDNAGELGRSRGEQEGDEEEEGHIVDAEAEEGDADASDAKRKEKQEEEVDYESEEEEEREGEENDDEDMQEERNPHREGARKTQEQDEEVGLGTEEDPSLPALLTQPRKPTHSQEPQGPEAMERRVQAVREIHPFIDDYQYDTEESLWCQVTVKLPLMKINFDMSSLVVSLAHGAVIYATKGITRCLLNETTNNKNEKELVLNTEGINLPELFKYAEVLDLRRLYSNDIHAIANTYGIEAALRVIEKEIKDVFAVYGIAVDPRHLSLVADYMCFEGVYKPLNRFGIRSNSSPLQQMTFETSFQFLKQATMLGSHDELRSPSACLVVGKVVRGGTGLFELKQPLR
UniProt P09884, 1171-1191: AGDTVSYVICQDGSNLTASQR
UniProt Q99570, whole entry, looked up: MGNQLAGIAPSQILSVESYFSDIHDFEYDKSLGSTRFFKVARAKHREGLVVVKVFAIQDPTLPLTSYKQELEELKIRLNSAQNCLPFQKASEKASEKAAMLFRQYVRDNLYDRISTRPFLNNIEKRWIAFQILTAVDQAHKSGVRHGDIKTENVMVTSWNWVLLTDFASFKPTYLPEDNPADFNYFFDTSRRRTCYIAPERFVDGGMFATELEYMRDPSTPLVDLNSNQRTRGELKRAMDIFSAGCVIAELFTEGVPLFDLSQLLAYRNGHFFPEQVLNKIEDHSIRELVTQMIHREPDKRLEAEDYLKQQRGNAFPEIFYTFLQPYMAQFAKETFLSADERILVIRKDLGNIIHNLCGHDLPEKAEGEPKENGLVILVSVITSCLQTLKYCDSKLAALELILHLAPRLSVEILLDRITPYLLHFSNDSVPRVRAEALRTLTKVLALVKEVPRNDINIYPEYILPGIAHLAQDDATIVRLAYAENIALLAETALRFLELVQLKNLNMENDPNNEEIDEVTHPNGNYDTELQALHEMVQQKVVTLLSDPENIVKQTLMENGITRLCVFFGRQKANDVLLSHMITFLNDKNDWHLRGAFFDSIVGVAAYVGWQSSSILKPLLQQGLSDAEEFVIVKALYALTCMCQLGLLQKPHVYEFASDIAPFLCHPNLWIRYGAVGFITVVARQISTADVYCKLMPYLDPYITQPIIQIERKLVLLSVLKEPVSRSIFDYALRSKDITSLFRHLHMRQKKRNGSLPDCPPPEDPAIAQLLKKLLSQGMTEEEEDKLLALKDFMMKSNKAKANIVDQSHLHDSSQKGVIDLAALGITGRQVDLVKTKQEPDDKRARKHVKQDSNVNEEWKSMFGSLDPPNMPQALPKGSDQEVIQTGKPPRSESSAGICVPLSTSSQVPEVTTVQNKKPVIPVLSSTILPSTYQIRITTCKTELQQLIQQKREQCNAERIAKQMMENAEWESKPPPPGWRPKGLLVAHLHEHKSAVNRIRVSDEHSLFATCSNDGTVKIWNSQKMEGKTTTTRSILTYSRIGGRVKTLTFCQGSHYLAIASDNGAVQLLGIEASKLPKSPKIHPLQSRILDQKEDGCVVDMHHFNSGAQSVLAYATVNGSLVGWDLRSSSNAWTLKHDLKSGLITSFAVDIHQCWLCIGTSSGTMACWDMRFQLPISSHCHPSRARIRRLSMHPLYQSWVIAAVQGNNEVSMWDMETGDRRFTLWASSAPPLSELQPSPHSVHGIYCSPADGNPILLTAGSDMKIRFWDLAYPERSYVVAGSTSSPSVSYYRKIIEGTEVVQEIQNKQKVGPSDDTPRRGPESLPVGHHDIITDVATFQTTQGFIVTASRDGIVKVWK
UniProt Q9BSJ6: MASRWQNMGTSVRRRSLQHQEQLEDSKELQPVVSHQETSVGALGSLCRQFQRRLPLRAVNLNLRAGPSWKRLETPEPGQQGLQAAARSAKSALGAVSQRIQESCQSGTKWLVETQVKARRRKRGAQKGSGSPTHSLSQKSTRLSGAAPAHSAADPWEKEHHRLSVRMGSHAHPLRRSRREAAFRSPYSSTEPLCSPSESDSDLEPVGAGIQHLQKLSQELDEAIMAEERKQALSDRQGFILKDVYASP
UniProt Q9UG56: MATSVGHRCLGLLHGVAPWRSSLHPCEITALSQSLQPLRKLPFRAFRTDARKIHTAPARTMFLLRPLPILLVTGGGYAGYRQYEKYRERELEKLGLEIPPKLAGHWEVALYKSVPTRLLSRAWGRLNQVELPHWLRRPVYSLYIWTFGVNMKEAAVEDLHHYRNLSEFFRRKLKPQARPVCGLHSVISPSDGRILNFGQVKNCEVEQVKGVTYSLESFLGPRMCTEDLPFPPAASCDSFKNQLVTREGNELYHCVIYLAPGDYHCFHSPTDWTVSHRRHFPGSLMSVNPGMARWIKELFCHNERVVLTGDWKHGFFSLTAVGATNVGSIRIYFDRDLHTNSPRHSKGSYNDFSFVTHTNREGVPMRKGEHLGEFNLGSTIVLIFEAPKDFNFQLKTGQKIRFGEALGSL
UniProt Q9H7P9: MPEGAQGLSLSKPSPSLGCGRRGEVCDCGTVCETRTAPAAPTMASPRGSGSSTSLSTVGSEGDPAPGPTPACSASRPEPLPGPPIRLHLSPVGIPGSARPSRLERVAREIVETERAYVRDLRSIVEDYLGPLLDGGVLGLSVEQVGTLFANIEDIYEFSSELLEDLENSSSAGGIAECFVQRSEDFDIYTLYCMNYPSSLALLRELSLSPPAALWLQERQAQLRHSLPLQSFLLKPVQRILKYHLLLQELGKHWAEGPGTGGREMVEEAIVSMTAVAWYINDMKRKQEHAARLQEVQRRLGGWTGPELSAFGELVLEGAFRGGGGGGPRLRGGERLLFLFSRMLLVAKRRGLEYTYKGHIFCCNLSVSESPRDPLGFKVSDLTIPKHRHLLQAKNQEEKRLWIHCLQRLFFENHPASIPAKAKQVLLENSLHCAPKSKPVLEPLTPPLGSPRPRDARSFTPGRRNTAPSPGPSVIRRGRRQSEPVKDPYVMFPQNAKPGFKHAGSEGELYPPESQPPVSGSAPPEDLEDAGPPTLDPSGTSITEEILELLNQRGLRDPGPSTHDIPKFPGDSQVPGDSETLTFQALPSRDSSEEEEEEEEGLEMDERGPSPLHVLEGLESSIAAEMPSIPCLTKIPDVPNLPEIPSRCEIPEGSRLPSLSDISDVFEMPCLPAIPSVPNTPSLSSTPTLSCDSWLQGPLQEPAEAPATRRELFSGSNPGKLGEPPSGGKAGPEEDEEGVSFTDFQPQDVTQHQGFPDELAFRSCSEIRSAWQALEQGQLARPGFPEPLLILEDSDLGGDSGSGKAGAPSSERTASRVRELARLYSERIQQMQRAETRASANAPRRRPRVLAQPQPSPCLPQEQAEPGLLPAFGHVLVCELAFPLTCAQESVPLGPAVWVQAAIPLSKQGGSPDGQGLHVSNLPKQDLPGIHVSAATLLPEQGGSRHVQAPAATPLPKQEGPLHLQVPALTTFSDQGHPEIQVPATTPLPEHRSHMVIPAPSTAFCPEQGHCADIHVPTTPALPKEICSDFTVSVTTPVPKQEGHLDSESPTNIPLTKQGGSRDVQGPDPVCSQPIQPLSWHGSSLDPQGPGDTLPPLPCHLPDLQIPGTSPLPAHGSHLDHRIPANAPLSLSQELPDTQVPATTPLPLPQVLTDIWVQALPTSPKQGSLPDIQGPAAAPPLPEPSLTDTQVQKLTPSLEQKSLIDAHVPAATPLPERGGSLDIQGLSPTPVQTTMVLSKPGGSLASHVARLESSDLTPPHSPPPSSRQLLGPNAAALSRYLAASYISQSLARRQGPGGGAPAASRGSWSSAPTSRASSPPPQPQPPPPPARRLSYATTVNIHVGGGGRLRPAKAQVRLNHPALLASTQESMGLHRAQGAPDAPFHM

Compound: ClCC(=O)N[C@@H]1CCCc2ccccc12
Experiment: log2 mean competition ratio of IA-DTB cysteine labelling (DMSO/compound) (log2 ratio); higher = stronger cysteine engagement by compound
Conditions: 50 µM; treatment time: 4 h; cell line lysate: HEK293T
Method: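 IA-DTB competitive cysteine chemoproteomics in HEK293T RIPA lysate. Lysates were treated with compound 29 or 30 at 50 or 200 µM for 4 h, then IA-DTB (500 µM, 1 h), trypsin-digested, NeutrAvidin-enriched and analysed by diaPASEF. Competition ratio = intensity DMSO / intensity compound (n=4 treated, n=64 DMSO); binding: mean log2 CR ≥ 1 and p ≤ 0.05 plus QC filters. Target is the cysteine site.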

Target	log2 mean competition ratio
PHF5A C85 (UniProt Q7RTV0)	-0.0129
PLAA C631 (UniProt Q9Y263)	0.00481
PLEKHG4 C26 (UniProt Q58EX7)	0.453
POLR1A C1304 (UniProt O95602)	-0.0622
POLE C747 (UniProt Q07864)	-0.0778
PHF3 C1631 (UniProt Q92576)	-0.234
POLR1E C14 (UniProt Q9GZS1)	0.403
POLR1A C1332 (UniProt O95602)	-0.115
PKP4 C591 (UniProt Q99569)	0.129
POLA1 C1180 (UniProt P09884)	-0.411
PIGT C272	-0.119
PLCB3 C1176 (UniProt Q01970)	-0.403
POLL C241	-0.0164
PIK3R4 C955 (UniProt Q99570)	0.00396
PIMREG C104 (UniProt Q9BSJ6)	-0.021
PISD C300 (UniProt Q9UG56)	0.024
PLCXD1 C153 (UniProt Q9NUJ7)	-0.0684
PLCG1 C247 (UniProt P19174)	-0.158
POLR1B C855 (UniProt Q9H9Y6)	-0.187
PLEKHG2 C648 (UniProt Q9H7P9)	-0.17

Same assay, conditions: 200 µM; treatment time: 4 h; cell line lysate: HEK293T

Target	log2 mean competition ratio
PHF5A C85 (UniProt Q7RTV0)	-0.197
PLAA C631 (UniProt Q9Y263)	-0.107
PLEKHG4 C26 (UniProt Q58EX7)	0.468
POLR1A C1304 (UniProt O95602)	-0.268
POLE C747 (UniProt Q07864)	-0.061
PHF3 C1631 (UniProt Q92576)	-0.0079
POLR1E C14 (UniProt Q9GZS1)	-0.0666
POLR1A C1332 (UniProt O95602)	-0.295
PKP4 C591 (UniProt Q99569)	0.136
POLA1 C1180 (UniProt P09884)	0.0551
PIGT C272	-0.0415
PLCB3 C1176 (UniProt Q01970)	0.363
POLL C241	-0.213
PIK3R4 C955 (UniProt Q99570)	0.374
PIMREG C104 (UniProt Q9BSJ6)	-0.149
PISD C300 (UniProt Q9UG56)	-0.211
PLCXD1 C153 (UniProt Q9NUJ7)	0.169
PLCG1 C247 (UniProt P19174)	0.0768
POLR1B C855 (UniProt Q9H9Y6)	-0.0814
PLEKHG2 C648 (UniProt Q9H7P9)	-0.138
